{
  "source": "patent US8008433B2",
  "about": "(Metabolic Pharmaceutical Limited, priority 2004, dated 2011)",
  "test": "peptide made by a vendor",
  "conditions": "whole synthesis",
  "note": "Bridges are numbered along the chain shown (N, C = ends).",
  "data": [
    {"substance": "H-YLRIVQCRSVEGSCGF-OH (disulfide 7-14; N-terminus and C-terminus assumed; SMILES CC[C@H](C)[C@H](NC(=O)[C@H](CCCNC(=N)N)NC(=O)[C@H](CC(C)C)NC(=O)[C@@H](N)Cc1ccc(O)cc1)C(=O)N[C@H](C(=O)N[C@@H](CCC(N)=O)C(=O)N[C@H]1CSSC[C@@H](C(=O)NCC(=O)N[C@@H](Cc2ccccc2)C(=O)O)NC(=O)[C@H](CO)NC(=O)CNC(=O)[C@H](CCC(=O)O)NC(=O)[C@H](C(C)C)NC(=O)[C@H](CO)NC(=O)[C@H](CCCNC(=N)N)NC1=O)C(C)C)", "values": [
      {"measurement": "purity (crude or final not stated)", "value": 95, "unit": "%"}
    ]}
  ]
}
